These are yes or no findings as the source states them, for the method shown. In cells and extracts the contact can be indirect. Some entries that bind do so weakly or less than the wild type. Where a sequence is shown, tags or fusion partners need not be part of it.
Target: T1, Leucine rich repeat transmembrane protein 3 (LRRTM3) with a V5 tag (human) (UniProt Q86VH5)
T1 sequence: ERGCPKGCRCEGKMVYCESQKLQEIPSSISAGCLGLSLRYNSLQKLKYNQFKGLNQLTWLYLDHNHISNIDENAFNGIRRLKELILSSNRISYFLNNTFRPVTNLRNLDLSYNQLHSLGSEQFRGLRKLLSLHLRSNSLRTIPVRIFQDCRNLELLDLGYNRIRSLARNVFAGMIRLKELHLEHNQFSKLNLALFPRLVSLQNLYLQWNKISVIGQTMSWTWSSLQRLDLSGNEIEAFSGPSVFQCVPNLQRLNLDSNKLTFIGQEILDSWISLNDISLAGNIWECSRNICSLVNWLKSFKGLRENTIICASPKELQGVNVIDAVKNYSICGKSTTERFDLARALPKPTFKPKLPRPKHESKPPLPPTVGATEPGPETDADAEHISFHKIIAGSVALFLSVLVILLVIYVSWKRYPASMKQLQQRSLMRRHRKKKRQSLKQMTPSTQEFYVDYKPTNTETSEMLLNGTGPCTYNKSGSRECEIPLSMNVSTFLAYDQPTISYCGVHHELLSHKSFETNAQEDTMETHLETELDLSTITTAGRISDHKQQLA
Experiment: co-IP; HEK293T cells transfected with LRRTM3-V5 and BACE1-GFP; lysed in IP buffer (150mM NaCl, 50mM Tris pH 7.5, 0.1% Triton); 1 ug of anti-V5, anti-GFP or CT20 antibody on Dynabeads Protein G, 30 minutes with the lysate, extensively washed; Western blot of the eluted immunocomplexes

Amino acid sequences for entries named in this document (tags omitted). Residues count along the entry.
UniProt P56817, residues 46-501: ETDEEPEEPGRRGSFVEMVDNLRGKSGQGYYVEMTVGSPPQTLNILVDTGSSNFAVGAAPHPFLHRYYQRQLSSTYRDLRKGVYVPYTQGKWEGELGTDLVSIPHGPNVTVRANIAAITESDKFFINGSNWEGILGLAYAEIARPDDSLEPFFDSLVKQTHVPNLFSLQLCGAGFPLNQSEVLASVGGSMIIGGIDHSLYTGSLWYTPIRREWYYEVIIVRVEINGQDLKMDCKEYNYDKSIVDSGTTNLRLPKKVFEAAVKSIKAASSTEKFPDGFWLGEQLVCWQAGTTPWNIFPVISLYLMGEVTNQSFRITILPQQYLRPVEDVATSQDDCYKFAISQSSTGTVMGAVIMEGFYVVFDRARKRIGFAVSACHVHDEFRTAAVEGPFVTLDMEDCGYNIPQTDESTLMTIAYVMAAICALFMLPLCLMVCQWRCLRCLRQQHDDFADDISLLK
UniProt P05067, residues 18-770: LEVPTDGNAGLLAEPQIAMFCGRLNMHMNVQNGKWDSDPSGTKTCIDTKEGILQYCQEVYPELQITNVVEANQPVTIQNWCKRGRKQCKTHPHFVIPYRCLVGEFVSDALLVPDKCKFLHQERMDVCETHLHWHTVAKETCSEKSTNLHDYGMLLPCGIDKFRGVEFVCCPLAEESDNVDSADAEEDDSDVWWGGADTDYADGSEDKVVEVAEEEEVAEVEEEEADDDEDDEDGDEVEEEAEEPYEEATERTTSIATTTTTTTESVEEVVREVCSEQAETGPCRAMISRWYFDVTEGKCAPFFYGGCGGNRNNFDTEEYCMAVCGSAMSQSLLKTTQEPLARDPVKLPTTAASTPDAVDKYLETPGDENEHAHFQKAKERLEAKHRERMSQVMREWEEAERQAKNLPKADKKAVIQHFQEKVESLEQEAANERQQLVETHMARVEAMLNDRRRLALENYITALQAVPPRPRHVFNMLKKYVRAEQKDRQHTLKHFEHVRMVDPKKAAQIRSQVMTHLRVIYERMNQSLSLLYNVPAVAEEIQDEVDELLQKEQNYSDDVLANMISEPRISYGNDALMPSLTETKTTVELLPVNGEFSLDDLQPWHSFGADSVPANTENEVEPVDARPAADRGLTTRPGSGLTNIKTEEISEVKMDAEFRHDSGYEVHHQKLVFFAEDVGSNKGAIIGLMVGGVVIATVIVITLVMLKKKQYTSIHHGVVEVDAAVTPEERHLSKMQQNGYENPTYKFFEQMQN

Substance	binding
BACE1 with a GFP tag (from UniProt P56817 46-501) (enzyme)	binds
Amyloid precursor protein (APP), endogenous in HEK293T cells (from UniProt P05067 18-770)	binds

Source: publication PMC3672107
